The results in this text go back to publication PMC9495756.

The target of this experiment is hypoxia-inducible factor-1α (human (endogenous in HK-2)), Q16665. In words: co-IP; HK-2 cell extracts after 16 h in nutrient-replete or nutrient-deficient conditions with or without 200 μM CoCl2; HIF-1α immunoprecipitated overnight at 4 °C, Protein G Sepharose, one wash with HEPES-buffered saline (150 mM NaCl; 10 mM HEPES, pH 7.4); immunoblots for NRF2 and HIF-1α. The settings on record: remark: other sources report otherwise.

No constants are given. Whether binding was seen depends on the method and setting. Binding seen in cells or lysates may run through a third protein.

B1: nuclear factor erythroid-2-related factor 2, Q16236 1-605 (protein)
chain: MMDLELPPPGLPSQQDMDLIDILWRQDIDLGVSREVFDFSQRRKEYELEKQKKLEKERQEQLQKEQEKAFFAQLQLDEETGEFLPIQPAQHIQSETSGSANYSQVAHIPKSDALYFDDCMQLLAQTFPFVDDNEVSSATFQSLVPDIPGHIESPVFIATNQAQSPETSVAQVAPVDLDGMQQDIEQVWEELLSIPELQCLNIENDKLVETTMVPSPEAKLTEVDNYHFYSSIPSMEKEVGNCSPHFLNAFEDSFSSILSTEDPNQLTVNSLNSDATVNTDFGDEFYSAFIAEPSISNSMPSPATLSHSLSELLNGPIDVSDLSLCKAFNQNHPESTAEFNDSDSGISLNTSPSVASPEHSVESSSYGDTLLGLSDSEVEELDSAPGSVKQNGPKTPVHSSGDMVQPLSPSQGQSTHVHDAQCENTPEKELPVSPGHRKTPFTKDKHSSRLEAHLTRDELRAKALHIPFPVEKIINLPVVDFNEMMSKEQFNEAQLALIRDIRRRGKNKVAAQNCRKRKLENIVELEQDLDHLKDEKEKLLKEKGENDKSLHLLKKQLSTLYLEVFSMLRDEDGKPYSPSEYSLQQTRDGNVFLVPKSKKPDVKKN
Regarding B1, the binding result is “no binding”.
